# The supplement of paper PMC12425257
# ± gives the standard deviation of the averaged measurements. This is one part of the list.
# Test system: Madurella mycetomatis MM55
# Assay: metabolic activity (growth) relative to DMSO growth control; higher = more fungal growth
# Details: 1 µM
row,SMILES,metabolic activity
1,COc1cc2c(cc1OC)C(=C(Nc1ccccc1)c1cccc(CN)c1)C(=O)N2,105 ± 15%
2,Cn1cc(-c2cnc3ccc4ccc(COC(=O)NCc5ccccn5)cc4c(=O)c3c2)cn1,99.4 ± 14%
3,COc1cc(N2CCN(C)CC2)ccc1Nc1ncc2c(n1)N(C)c1ccccc1C(=O)N2,85.7 ± 12%
4,NC[C@@H](NC(=O)c1cccc(-c2ccccn2)c1)c1ccccc1,96.3 ± 24%
5,O=C(Nc1n[nH]c2cc(-c3cccc(F)c3F)ccc12)C1CC1,78.3 ± 9.2%
6,CCN1CCN(Cc2ccc(C(=O)Nc3ccc(C)c(Oc4ccc5c(c4)CC(=O)N5)c3)cc2C(F)(F)F)CC1.Cl.Cl,91.1 ± 22%
7,O=C1NC(=O)C(c2c[nH]c3sccc23)=C1c1nc(N2CCN(CCO)CC2)nc2ccccc12,98.2 ± 29%
8,NCC1CNC(=O)c2cc3ccc(C(=O)Nc4cccnc4)cc3n2C1 (stereo unspecified),107 ± 36%
9,CCOc1ccc2c(-c3ccnc(Nc4cccc(C(F)(F)F)c4)n3)cnn2n1,92.3 ± 13%
10,CC(C)(C)c1cnc(CSc2cnc(NC(=O)C3CCS(=O)(=O)CC3)s2)o1,117 ± 23%
11,Cl.O=C(O[C@H]1CN[C@H](C#Cc2cc3ncnc(Nc4ccc5c(cnn5Cc5ccccc5)c4)c3s2)C1)N1CCOCC1,94 ± 2.3%
12,O=C(O)c1cc2c(-c3cccc(-c4ccccc4)c3)cncc2s1,107 ± 18%
13,C[C@@H]1CCNC(=O)c2cc3ccc(C(=O)Nc4nc5ccccc5n4CCCN(C)C)cc3n21,83 ± 13%
14,O=C(O)C(F)(F)F.O=c1c2cnc(Nc3ccc(N4CCCCC4)cc3)nc2n2ccnc2n1-c1ccccc1Cl,118 ± 20%
15,CCOc1nc(C(=O)NCc2ccc(S(C)(=O)=O)cc2)cc(N)c1C#N,99.5 ± 21%
16,CC[C@@H]1C(=O)N(C)c2cnc(Nc3ccc(C(=O)NC4CCN(C)CC4)cc3OC)nc2N1C1CCCC1,106 ± 22%
17,Cc1ncc2n1CCN(c1nc(C3=C(c4c[nH]c5sccc45)C(=O)NC3=O)c3ccccc3n1)C2,114 ± 20%
18,COc1ccc(-c2cc3c(N)ncnc3o2)cc1,105 ± 3.5%

# Among those listed so far, these have an aryl methoxy group.
row,SMILES,metabolic activity
1,COc1cc2c(cc1OC)C(=C(Nc1ccccc1)c1cccc(CN)c1)C(=O)N2,105 ± 15%
3,COc1cc(N2CCN(C)CC2)ccc1Nc1ncc2c(n1)N(C)c1ccccc1C(=O)N2,85.7 ± 12%
16,CC[C@@H]1C(=O)N(C)c2cnc(Nc3ccc(C(=O)NC4CCN(C)CC4)cc3OC)nc2N1C1CCCC1,106 ± 22%
18,COc1ccc(-c2cc3c(N)ncnc3o2)cc1,105 ± 3.5%

# Next results:

row,SMILES,metabolic activity
1,COC[C@@H](C)N[C@H]1CC[C@H](Nc2cc(-c3cccc(NCC4(C#N)CCOCC4)n3)c(Cl)cn2)CC1,86.2 ± 18%
2,COc1cc2c(cc1CC(C)(C)O)Nc1cc(-c3ccc([N+](=O)[O-])c(OC)c3)ccc1C(=O)N2,98.7 ± 24%
3,CN1C(=O)c2ccccc2N(C)c2nc(Nc3ccc(S(=O)(=O)NCCCNC(=O)OC(C)(C)C)cc3)ncc21,102 ± 34%
4,O=C1Nc2ccc(I)cc2C1=Cc1cc(Br)c(O)c(Br)c1,107 ± 44%
5,CCOc1cc(F)c(Cn2nc(-c3ncc(OC)c(Nc4ccncc4)n3)c(C)c2C2CC2)c(F)c1,95.52 ± 0.75%
6,COc1cc(N2CCNCC2)ccc1Nc1nc(Cc2c(Cl)cccc2Cl)cc2c1C(=O)NCN2,82 ± 22%
7,CC[C@]1(F)CN(C2CCCC2)c2nc(Nc3ccc(C(=O)NC4CCN(C)CC4)cc3OC)ncc2N(C)C1=O,121 ± 17%
8,COc1cc(OC)c(NC(=O)Nc2cnc(C#N)cn2)cc1Cl,107 ± 27%
9,Cc1ccc(NC(=O)Nc2ccccc2F)cc1-c1ccc(C(=O)Nc2ccncc2)cc1,99.8 ± 35%
10,Cc1nc(Nc2cnn(C3CCNCC3)c2)nc2c1N(C)C(=O)c1cc3ccccc3cc1N2C,105 ± 36%
11,O=C(O)CSc1ncnc2cc(-c3cc4ccccc4s3)sc12,104 ± 27%
12,OC[C@H]1C[C@@H](Nc2nc(NCCc3cccnc3)ncc2-c2[nH+]c3ccccc3s2)[C@H](O)[C@@H]1O,93.5 ± 30%
13,COc1cc2ncn(-c3cc(OCc4ccncc4)c(C(N)=O)s3)c2cc1OC,92.2 ± 8.6%
14,Cn1ccc2ncnc(Oc3ccc(NC(=O)Nc4ccccc4)cc3)c21,102 ± 27%
15,CNC(=O)c1c(F)cccc1Nc1nc(Nc2cc3c(cc2OC)CCN3C(=O)CN(C)C)nc2[nH]ccc12,100 ± 17%
16,NC(=O)c1c(Oc2ccc(F)c(NS(N)(=O)=O)c2)cc(F)c(F)c1Nc1ccc(I)cc1F,92.6 ± 1.3%
17,CNc1nc(Nc2ccc(C(=O)N3CCOCC3)cc2OC)nc2[nH]cc(Cl)c12,105 ± 7.7%
18,Cn1cncc1-c1ccc(C(=O)N[C@H](CN)c2ccccc2)cc1,100 ± 22%
